Values from PubChem BioAssay AID1508597 (Cure First, 2020).
Shown is an unselected part of the about 2,100 reagents, in one setting of the screen. 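Calls flag viability under 80% in either arm, not effects specific to rucaparib; the reference for percent is not stated.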 Some reagents were tested in more than one well and are listed for each. Not stated in the record: the 100% reference.

- Aim: 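Genes whose silencing sensitises or protects ovarian cancer cells against rucaparib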 (primary screen)
- System: human ovarian carcinoma lines grown from tumours: OCI-P5x (papillary serous) and OCI-C5x (clear cell)
- Knock-down reagent: siRNA pool against human genes, 1.25 pmol siRNA per well
- Duration: 72 h or 96 h, depending on the cell culture
- Conditions: rucaparib 20 µM (about IC30) or vehicle, present until read-out
- Rucaparib or vehicle: Rucaparib
- Cell line: OCI-P5x (serous)
- Read-out: 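ATP luminescence measured at 72 or 96 h according to the culture, then normalised and expressed as percent viability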
- Reading the numbers: viability, normalised: higher = more viable cells remaining
- Rule for the call: 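a well counts as a hit if its normalised viability is under 80 percent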
- Meaning of the calls: active = viability under 80%; inactive = viability 80% or more

TGFBR3 (transforming growth factor beta receptor 3) [SID405526558], technical replicate 1 | viability, normalised (%): 73.1; Call: active
TGFBR3 (transforming growth factor beta receptor 3) [SID405526558], technical replicate 2 | viability, normalised (%): 86.2; Call: inactive
TGFBR3 (transforming growth factor beta receptor 3) [SID405526558], technical replicate 3 | viability, normalised (%): 68.4; Call: active
CDK10 (cyclin dependent kinase 10) [SID405527412], technical replicate 1 | viability, normalised (%): 108; Call: inactive
CDK10 (cyclin dependent kinase 10) [SID405527412], technical replicate 2 | viability, normalised (%): 101; Call: inactive
CDK10 (cyclin dependent kinase 10) [SID405527412], technical replicate 3 | viability, normalised (%): 96; Call: inactive
CAMKK1 (calcium/calmodulin dependent protein kinase kinase 1) [SID405527829], technical replicate 1 | viability, normalised (%): 85.9; Call: inactive
CAMKK1 (calcium/calmodulin dependent protein kinase kinase 1) [SID405527829], technical replicate 2 | viability, normalised (%): 87.1; Call: inactive
CAMKK1 (calcium/calmodulin dependent protein kinase kinase 1) [SID405527829], technical replicate 3 | viability, normalised (%): 67.4; Call: active
PRDM9 (PR/SET domain 9) [SID405527193], technical replicate 1 | viability, normalised (%): 56; Call: active
PRDM9 (PR/SET domain 9) [SID405527193], technical replicate 2 | viability, normalised (%): 54.6; Call: active
PRDM9 (PR/SET domain 9) [SID405527193], technical replicate 3 | viability, normalised (%): 51.6; Call: active
RAD51B (RAD51 paralog B) [SID405528361], technical replicate 1 | viability, normalised (%): 86.6; Call: inactive
RAD51B (RAD51 paralog B) [SID405528361], technical replicate 2 | viability, normalised (%): 121; Call: inactive
RAD51B (RAD51 paralog B) [SID405528361], technical replicate 3 | viability, normalised (%): 109; Call: inactive
PRDM11 (PR/SET domain 11) [SID405527181], technical replicate 1 | viability, normalised (%): 42.4; Call: active
PRDM11 (PR/SET domain 11) [SID405527181], technical replicate 2 | viability, normalised (%): 45.8; Call: active
PRDM11 (PR/SET domain 11) [SID405527181], technical replicate 3 | viability, normalised (%): 37.9; Call: active
TAF1L (TATA-box binding protein associated factor 1 like) [SID405526524], technical replicate 1 | viability, normalised (%): 85.4; Call: inactive
TAF1L (TATA-box binding protein associated factor 1 like) [SID405526524], technical replicate 1 | viability, normalised (%): 65.2; Call: active
TAF1L (TATA-box binding protein associated factor 1 like) [SID405526524], technical replicate 2 | viability, normalised (%): 56.1; Call: active
TAF1L (TATA-box binding protein associated factor 1 like) [SID405526524], technical replicate 2 | viability, normalised (%): 79.2; Call: active
TAF1L (TATA-box binding protein associated factor 1 like) [SID405526524], technical replicate 3 | viability, normalised (%): 79.9; Call: active
TAF1L (TATA-box binding protein associated factor 1 like) [SID405526524], technical replicate 3 | viability, normalised (%): 55.1; Call: active
